Measured values published in publication PMC4569481.
Results are given in words; binding and its absence hold for the method and conditions named. Some binding calls cover weakened binding; strength is not graded here.

Amino acid sequences for entries named in this document (tags omitted). A change or cut given only in a name is not applied to a line headed by its entry. Residues count along the entry.
UniProt P10909: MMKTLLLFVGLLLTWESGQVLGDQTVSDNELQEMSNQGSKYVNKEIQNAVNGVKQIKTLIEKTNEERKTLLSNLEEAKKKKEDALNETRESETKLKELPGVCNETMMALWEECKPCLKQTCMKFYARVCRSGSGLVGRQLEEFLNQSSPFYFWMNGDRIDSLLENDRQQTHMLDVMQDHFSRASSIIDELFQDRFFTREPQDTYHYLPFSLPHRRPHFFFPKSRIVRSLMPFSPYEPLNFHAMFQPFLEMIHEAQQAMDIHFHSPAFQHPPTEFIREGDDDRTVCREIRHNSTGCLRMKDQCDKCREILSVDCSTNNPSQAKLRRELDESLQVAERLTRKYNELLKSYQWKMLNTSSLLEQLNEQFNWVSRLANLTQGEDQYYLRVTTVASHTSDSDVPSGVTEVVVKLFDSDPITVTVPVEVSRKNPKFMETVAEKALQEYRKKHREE
UniProt P04004, residues 99-398: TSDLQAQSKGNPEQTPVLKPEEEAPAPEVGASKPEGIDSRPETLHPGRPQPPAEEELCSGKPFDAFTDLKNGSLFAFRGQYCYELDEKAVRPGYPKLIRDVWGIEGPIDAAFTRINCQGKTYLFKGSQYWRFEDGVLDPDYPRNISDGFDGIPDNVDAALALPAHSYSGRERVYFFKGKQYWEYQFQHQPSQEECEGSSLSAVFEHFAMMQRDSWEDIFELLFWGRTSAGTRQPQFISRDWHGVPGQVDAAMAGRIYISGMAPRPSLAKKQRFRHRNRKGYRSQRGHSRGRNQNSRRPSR

What was measured:
[1] = target: Lpd deletion mutant Lpd^141-478 (P. aeruginosa strain PAO1) (UniProt Q9I3D1); assay: ELISA; equimolar amounts (13.3 nM) of full length Lpd and Lpd deletion mutants immobilized on microtiter plates; vitronectin or clusterin added; bound ligand quantified with antibodies; both purified
[2] = target: Lpd deletion mutant Lpd^264-478 (P. aeruginosa strain PAO1) (UniProt Q9I3D1); assay: as above
[3] = target: Lpd deletion mutant Lpd^1-287 (P. aeruginosa strain PAO1) (UniProt Q9I3D1); assay: as above
[4] = target: Dihydrolipoamide dehydrogenase (Lpd) of P. aeruginosa, recombinant full length (Lpd^1-478) (P. aeruginosa strain PAO1) (UniProt Q9I3D1); assay: ELISA; Lpd (5 μg/ml) coated on microtiter plates overnight at 4°C; vitronectin (0.01–12.5 μg/ml), recombinant vitronectin constructs (5 μg/ml) or clusterin (0.01–20 μg/ml) added 1 h at RT; detected with antibodies, absorbance at 492 nm; both purified

| Substance | binding [1] | binding [2] | binding [3] | binding [4] |
| --- | --- | --- | --- | --- |
| clusterin, purified from human plasma (from UniProt P10909 23-227; P10909 228-449) | binds weakly | binds weakly | binds weakly | – |
| vitronectin^80-379 (from UniProt P04004 99-398) (domain or fragment) | – | – | – | binds |
